This passage reports binding results from doi:10.1101/2023.06.21.544075.

By UniProt entry, the sequences of proteins in these tests, tags left out. Residues count along the entry.
UniProt Q05996, residues 39-365: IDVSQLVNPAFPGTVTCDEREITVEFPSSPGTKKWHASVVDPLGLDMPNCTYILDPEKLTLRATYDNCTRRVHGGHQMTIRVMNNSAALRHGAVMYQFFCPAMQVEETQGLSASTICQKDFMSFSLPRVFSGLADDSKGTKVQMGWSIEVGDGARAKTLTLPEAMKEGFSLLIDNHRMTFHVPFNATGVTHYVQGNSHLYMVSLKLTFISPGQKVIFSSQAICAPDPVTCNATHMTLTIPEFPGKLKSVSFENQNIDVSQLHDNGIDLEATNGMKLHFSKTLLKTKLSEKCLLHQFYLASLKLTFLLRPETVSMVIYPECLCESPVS

Results are given in words; binding and its absence hold for the method and conditions named.

This experiment concerns the target uncleaved human ZP2 N-terminal region hZP2-N1N2N3 (human) (UniProt Q05996). Description: SEC-MALS. (In general: In gel filtration, larger molecules generally elute earlier.)

Regarding “uncleaved human ZP2 N-terminal region hZP2-N1N2N3 (from UniProt Q05996 39-365) (domain or fragment)”, the binding result is listed as “no binding”.
